Results published in the supplement of paper PMC8256030.
Several values for one entry are separate records, joined by “and”; a condition that tells them apart may be missing. Equal values may be shown once. The list shows a part of the results. Repeats in this data set agree poorly, so a single value says little.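 HEK293T cells were given each compound shortly before transfection with a reporter in which red mCherry is followed by the SARS-CoV-2 frameshift element and then GFP in the −1 frame, so GFP appears only after frameshifting.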

Tested on: HEK293T
Assay: percent viability (nuclei count) relative to control; higher = more viable cells
Settings: 10 µM; 24 h

Compound	percent viability
CN(C(=O)C(Cl)Cl)c1ccc(O)cc1 [diloxanide]	258%
COc1ccc(-n2nc(C(N)=O)c3c2C(=O)N(c2ccc(N4CCCCC4=O)cc2)CC3)cc1 [apixaban]	198%
CCS(=O)(=O)c1ccc(F)cc1 [fluoresone]	208%
CN1CCCN(C(c2ccccc2)c2ccc(Cl)cc2)CC1 (stereo not given) [homochlorcyclizine]	267%
O=C(/C=C/c1ccc2c(c1)OCO2)N1CCN(CC(=O)N2CCCC2)CC1 [cinoxopazide]	76%
COC(=O)N/N=C/c1c[n+]([O-])c2ccccc2[n+]1[O-]	151%
CSCC1CN(/N=C/c2ccc([N+](=O)[O-])o2)C(=O)O1 (stereo not given) [nifuratel]	230%
O=C(NCCO[N+](=O)[O-])c1cccnc1 [nicorandil]	156%
CCC(C(=O)O)c1ccc(N2Cc3ccccc3C2=O)cc1 (stereo not given) [indobufen]	80.7%
O=C(CCCc1ccccc1)OCC(COC(=O)CCCc1ccccc1)OC(=O)CCCc1ccccc1 [glycerol phenylbutyrate]	326%
CCN(CC)CCNC(=O)COc1ccc(OC)cc1	377%
O=C1NCC2(CCN(CCc3ccccc3)CC2)O1	205%
CO/N=C(\C(=O)N[C@@H]1C(=O)N2C(C(=O)OC(C)OC(C)=O)=C(COC(N)=O)CS[C@H]12)c1ccco1 (stereo not given in full)	240%
COc1ccc(C(=O)N2CCN(c3ccc4c(c3)CCC(=O)N4)CC2)cc1OC [vesnarinone]	235%
Cc1[nH+]cc(COP(=O)([O-])[O-])c(CN(CCN(CC(=O)[O-])Cc2c(COP(=O)([O-])O)c[nH+]c(C)c2O)CC(=O)[O-])c1O.[Mn].[Na+].[Na+].[Na+]	154%
CCC(C(=O)OCCN(CC)CC)c1ccccc1 (stereo not given) [butetamate]	221%
CC(C)OC(=O)C(C)(C)Oc1ccc(C(=O)c2ccc(Cl)cc2)cc1 [fenofibrate]	192% and 201%
CC[C@@H]([C@H](C)O)n1ncn(-c2ccc(N3CCN(c4ccc(OC[C@@H]5CO[C@@](Cn6cncn6)(c6ccc(F)cc6F)C5)cc4)CC3)cc2)c1=O [Posaconazole]	410%
Oc1ccccc1-c1nnco1 [fenadiazole]	93.4%
CCN(CC)CCNC(=O)c1ccc(NC(C)=O)cc1	398%

Compound	percent viability
CC1Oc2ccc(Cl)cc2N(CC(O)CO)C1=O (stereo not given) [diproxadol]	127%
CN1C2CCCC1CC(NC(=O)c1nn(C)c3ccccc13)C2 (stereo not given) [granisetron]	133%
Cc1cc(C(C)(C)C)c(O)c(C)c1CC1=NCCN1 [oxymetazoline]	207% and 141%
CN1CCN(C2=Nc3cc(Cl)ccc3Nc3ccccc32)CC1 [Clozapine]	251%
Cc1ccccc1N1CCN(CCc2nnc3n2CCCC3)CC1 [dapiprazole]	156%
OC(CCN1CCCCC1)(c1ccccc1)C1CCCC1 (stereo not given) [cycrimine]	77.6%
COc1ccc(-c2cc(=O)c3c(O)cc(O[C@@H]4O[C@H](CO[C@@H]5O[C@@H](C)[C@H](O)[C@@H](O)[C@H]5O)[C@@H](O)[C@H](O)[C@H]4O)cc3o2)cc1O [diosmin]	188% and 271%
CC1CCCCN1CCCOC(=O)c1ccccc1 (stereo not given) [piperocaine]	140%
CC(C)[N+](C)(CCOC(=O)C1c2ccccc2Oc2ccccc21)C(C)C [propantheline bromide]	190%
N[C@@H](CSCCCO)C(=O)O [fudosteine]	233%
CC1(C)S[C@@H]2[C@H](NC(=O)[C@H](NC(=O)N3CCNC3=O)c3ccccc3)C(=O)N2[C@H]1C(=O)O [azlocillin]	125%
CCCCOc1cc(C(=O)OCCN(CC)CC)ccc1N	176%
CN(C)CCN(Cc1cccs1)c1ccccn1 [methapyrilene]	296%
CCOC(=O)CN[C@@H](C(=O)N1CC[C@H]1C(=O)NCc1ccc(/C(N)=N\O)cc1)C1CCCCC1 [ximelagatran]	255%
O=C1CC2(CCCC2)CC(=O)N1CCCCN1CCN(c2ncccn2)CC1 [buspirone]	210% and 111%
CC(=O)OCC1=C(C(=O)O)N2C(=O)[C@@H](NC(=O)[C@H](N)c3ccccc3)[C@H]2SC1 [cefaloglycin]	160%
O=C(c1ccc2nonc2c1)N1CCCCC1 [farampator]	193%
CNC(=N)NC(=O)Nc1c(C)cccc1C [lidamidine]	152%
Nc1nc(=O)n([C@H]2C[C@H](O)[C@@H](CO)O2)cc1I [ibacitabine]	242%
NC(=O)c1ncn([C@@H]2O[C@H](CO)[C@@H](O)[C@H]2O)n1 [ribavirin]	180% and 198%

Sorted by number of heavy atoms (descending): some entries from above
Compound	percent viability
CC1(C)S[C@@H]2[C@H](NC(=O)[C@H](NC(=O)N3CCNC3=O)c3ccccc3)C(=O)N2[C@H]1C(=O)O [azlocillin]	125%
Nc1nc(=O)n([C@H]2C[C@H](O)[C@@H](CO)O2)cc1I [ibacitabine]	242%
CCS(=O)(=O)c1ccc(F)cc1 [fluoresone]	208%
